According to PubChem BioAssay AID504444 (National Center for Advancing Translational Sciences (NCATS), 2011):
The whole screen tested about 360,000 compounds, of which about 7,500 (2.1%) were called active. The shares of active, inactive and inconclusive entries below differ from those in the screen. Calls follow the shape of the dose curve; as a rule, active = well fitted inhibition curve with a large enough effect; inconclusive = small, poorly fitted or top-dose-only effect, or effect the other way; inactive = flat fitted curve, though single readings scatter. Potencies beside an inconclusive call are fits to weak or partial responses and may not hold up.
% is scaled to controls: 0 for no effect and ±100 for the full control effect; potency is read from the fitted curve at half-maximal effect.

Experiment: Nrf2 qHTS screen for inhibitors; also: nearly all actives have a fitted effect of over 60% in size
Settings: A549 ARE-Fluc reporter, luciferase luminescence, 18-24 h; activity change, negative = inhibition: at 46 µM (top of the series)
In short: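 A549 ARE_Fluc cells (5000/well, 5% FBS OPTI-MEM) pre-incubated 2 h, then treated with compounds 18-24 h at 37C/5% CO2 in concentration-response. CellTiter-Fluor viability read first; BugLite luciferase luminescence after 15 min at room temperature gives Nrf2 activity.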
For `CC1Cc2cc(S(=O)(=O)N3CCCC(C(=O)N4CCCCC4)C3)ccc2N1C(=O)C1CC1` (configuration not stated), the “activity change, negative = inhibition” value was inactive: -17.7%. With `CCC1CCCCN1CCCNC(=O)C1CCN(Cc2nc(-c3ccc(Cl)cc3)oc2C)CC1` (configuration not stated) the Potency was inconclusive: 23.1 µM [activator, single point]. With `Nc1ccc(-c2nnc(-c3ccc(-c4ccccc4)cc3)o2)cc1` the Potency was inconclusive: 4.11 µM [activator, single point]. For `O=C(Nc1cnc2ccccc2c1)c1ccncc1`, the Potency was inconclusive: 2.31 µM [activator, partial curve, poor fit]. With `Cc1c(C(=O)N/N=C/c2ccc(Cl)cc2)[nH]c2ccc(Cl)cc12` the Potency was inconclusive: 23.1 µM [falling, single point]. For `Cn1cc(NC(=O)Nc2ccc(C(F)(F)F)cc2)c(C(F)(F)F)n1`, the Potency was inconclusive: 23.1 µM [falling, single point]. For `O=C(c1ccc2snnc2c1)N1CCN(c2ccccn2)CC1`, the Potency was inconclusive: 7.31 µM [falling, partial curve, poor fit]. For `COC(=O)c1cn(NC(=O)C2CCC(C)CC2)c(=O)c2ccccc12` (configuration not stated), the “activity change, negative = inhibition” value was inactive: 26.3%. In the case of `N#Cc1ccc(CSc2nc3c(c(=O)[nH]2)CCCC3)cc1`, the Potency is reported as inconclusive: 11.6 µM [activator, partial curve, poor fit]. With `COc1ccc2c(C#CCCO)c(-c3ccc(S(C)(=O)=O)cc3)sc2c1` the Potency was inconclusive: 29.1 µM [falling, single point]. With `CC(OC(=O)c1cc(-c2cccnc2)nc2ccccc12)C(=O)Nc1ccc2ccccc2c1` (configuration not stated) the Potency was inconclusive: 25.9 µM [falling, partial curve, poor fit]. In the case of `C=CCN1CC(=O)N2Cc3[nH]c4ccccc4c3C[C@H]2C1=O`, the Potency is reported as inconclusive: 20.6 µM [falling, single point]. With `CCOc1ccc(NC(=O)c2cc(=O)c3ccc(C)c(C)c3o2)cc1` the Potency was inconclusive: 5.17 µM [falling, partial curve, poor fit]. With `CCC(=O)N1CCc2cc(S(=O)(=O)Nc3ccc4c(c3)OCCO4)ccc21` the Potency was active: 20.6 µM. In the case of `N#Cc1c(NC(=O)CSc2ncn[nH]2)sc2c1CCCC2`, the Potency is reported as active: 4.11 µM. With `COc1ccc(-c2nnc3c4ccccc4c(C)nn23)cc1` the Potency was inconclusive: 2.91 µM [activator, partial curve, poor fit]. In the case of `Cn1c(/C=N/n2cnnc2)nc2ccccc21`, the “activity change, negative = inhibition” value is reported as inactive: 9.4%. For `Cc1ccc(-n2ncc3c(NNC(=O)c4ccco4)ncnc32)cc1Cl`, the Potency was inconclusive: 25.9 µM [activator, single point]. In the case of `CCOC(=O)N1CCN(c2ccc(S(=O)(=O)N3CCC(C)CC3)cc2[N+](=O)[O-])CC1`, the Potency is reported as active: 18.4 µM. With `CCOC(=O)C1=C(C)NC(=S)NC1c1ccc(OCC(=O)N2CCCCC2)cc1` (configuration not stated) the Potency was inconclusive: 14.6 µM [falling, partial curve, poor fit]. In the case of `CCN(C(=O)COC(=O)c1cccnc1SC)C1CCS(=O)(=O)C1` (configuration not stated), the “activity change, negative = inhibition” value is reported as inactive: 2.29%. In the case of `CCn1cc(C(=O)NN)c(=O)c2cc(F)c(N3CCN(C)CC3)cc21`, the “activity change, negative = inhibition” value is reported as inactive: -2.62%. In the case of `COc1cc(NC(=O)Cn2c(=O)n(Cc3ccco3)c(=O)c3oc4ccccc4c32)cc(OC)c1`, the Potency is reported as inconclusive: 29.1 µM [activator, single point]. In the case of `O=C(CSc1nnc(-c2ccc([N+](=O)[O-])cc2)o1)Nc1ccccc1`, the Potency is reported as inconclusive: 9.2 µM [activator, partial curve]. For `O=[N+]([O-])c1ccc(S(=O)(=O)NCC(c2cccnc2)N2CCOCC2)cc1` (configuration not stated), the Potency was inconclusive: 0.82 µM [falling, full curve, poor fit]. In the case of `COc1ccccc1NS(=O)(=O)c1cc(NC(C)=O)ccc1N1CCCCC1`, the Potency is reported as inconclusive: 25.9 µM [falling, single point]. With `Cc1nc2ccc([N+](=O)[O-])cc2s1` the “activity change, negative = inhibition” value was inactive: 1.32%. For `Cc1cnc(C(=O)Nc2ccc(F)cc2)cn1`, the Potency was inconclusive: 2.06 µM [activator, partial curve, poor fit]. For `O=C(O)c1ccc(-c2nc(-c3ccccc3)c(-c3cccs3)[nH]2)cc1`, the “activity change, negative = inhibition” value was inactive: -15.4%. For `COC(=O)Cn1c(CN2CCN(c3ccc(F)cc3)CC2)nc2c1c(=O)n(C)c(=O)n2C`, the Potency was active: 18.4 µM. For `CC1CCCN(c2ccc(C(=O)Nc3ccc4c(c3)OCO4)cc2[N+](=O)[O-])C1` (configuration not stated), the Potency was inconclusive: 29.1 µM [falling, single point]. For `CC(C)(C)c1ccc(C(=O)N2CCCCC2CCN2CCCCC2)cc1` (configuration not stated), the “activity change, negative = inhibition” value was inactive: 20.2%. For `CCCC(=O)NC(=S)Nc1cccc(Cl)c1N1CCCC1`, the Potency was inconclusive: 20.6 µM [falling, partial curve, poor fit]. In the case of `CC(=O)Nc1ccc(S(=O)(=O)N2CCCCC2C(=O)O)cc1` (configuration not stated), the Potency is reported as inconclusive: 25.9 µM [activator, partial curve, poor fit]. For `O=C(c1ccc(-c2ccccc2)cc1)N1CCN(c2ccccc2)CC1`, the Potency was inconclusive: 29.1 µM [activator, partial curve, poor fit]. For `O=C(COC(=O)c1cccnc1Cl)c1ccccc1`, the Potency was inconclusive: 6.51 µM [activator, single point]. In the case of `O=C(CN1C(=O)COc2ccc(S(=O)(=O)Nc3ccccc3)cc21)Nc1cccc(Cl)c1`, the “activity change, negative = inhibition” value is reported as inactive: -13.6%. In the case of `Cc1c(C(=O)OCc2nc3scc(-c4ccccc4)c3c(=O)[nH]2)cccc1[N+](=O)[O-]`, the Potency is reported as active: 20.6 µM. For `O=C(C=C1SCCS1)/C=C/c1ccco1`, the Potency was inconclusive: 2.59 µM [activator, full curve, poor fit]. With `COc1ccc2c(c1)cc1c(=O)n(CC(=O)NCCCc3ccccc3)nc(C)n12` the “activity change, negative = inhibition” value was inactive: -3.97%. For `COc1ccc(S(=O)(=O)Nc2ccc3c(c2)CC(=O)N([C@@H](C)CO)C[C@@H](C)[C@@H](CN(C)Cc2ccccc2)O3)cc1`, the Potency was inconclusive: 29.1 µM [falling, single point]. With `CN(CC(=O)Nc1ccc(Cl)c(Cl)c1)CC(=O)Nc1ccc2c(c1)OCO2` the Potency was inconclusive: 32.6 µM [falling, single point]. For `NS(=O)(=O)c1ccc(CCNC(c2ccccc2)c2ccccc2)cc1`, the Potency was inconclusive: 29.1 µM [falling, single point]. For `Cc1cccc(-c2nsc(SCC(=O)N3CCCC3)n2)c1`, the Potency was inconclusive: 2.31 µM [activator, partial curve]. In the case of `Cc1ccc(CN2CCN(Cc3ccncc3)CC2CCO)o1` (configuration not stated), the Potency is reported as inconclusive: 0.082 µM [activator, full curve, poor fit]. In the case of `Cc1ccc(NC(=O)c2nc[nH]c2C(=O)N[C@@H](C)C(=O)OC(C)(C)C)cc1`, the Potency is reported as inconclusive: 29.1 µM [falling, single point]. For `COc1ccc(-c2csc(NC(=O)CSc3nnc(Nc4ccccc4C)s3)n2)cc1`, the Potency was inconclusive: 29.1 µM [falling, single point]. With `Cc1ncc(S(=O)(=O)c2ccccc2)c(-c2ccccc2)n1` the “activity change, negative = inhibition” value was inactive: -2.36%. For `COc1ccc(NC(=S)N/C(=N/CS(=O)(=O)c2ccccc2)c2ccccc2)cc1`, the Potency was inconclusive: 9.2 µM [activator, partial curve]. For `COc1ccc(NS(=O)(=O)c2ccc(N3CCOCC3)c(NC(=O)c3ccc(F)cc3)c2)cc1`, the Potency was active: 9.2 µM. For `O=c1[nH]c(=O)n(C2CC(O)C(CO)O2)cc1I` (configuration not stated), the Potency was inconclusive: 20.6 µM [falling, single point]. In the case of `CC1=C(C(=O)Nc2ccccc2)C(c2coc3ccccc3c2=O)C2=C(CCCC2=O)N1` (configuration not stated), the Potency is reported as inconclusive: 0.517 µM [falling, partial curve]. In the case of `CCc1ccc(NC(=O)Nc2ccc3c(c2)CCC3)cc1`, the Potency is reported as inconclusive: 18.4 µM [activator, single point]. In the case of `NS(=O)(=O)c1cccc(NC(=O)c2cc(-c3cccs3)nc3ccccc23)c1`, the “activity change, negative = inhibition” value is reported as inactive: -18.1%. In the case of `CCOC(=O)C1=C(C)N=c2s/c(=C/c3cccc([N+](=O)[O-])c3O)c(=O)n2C1c1cc(OC)c(OC)c(OC)c1` (configuration not stated), the Potency is reported as inconclusive: 29.1 µM [falling, single point]. For `CC(CC(=O)N1CCN(c2cccc(Cl)c2)CC1)S(=O)(=O)c1ccc2c(c1)NC(=O)CO2` (configuration not stated), the Potency was active: 6.51 µM. In the case of `Cc1ccccc1Cc1c(C)nc2nc(SCC(=O)NCc3ccco3)nn2c1C`, the Potency is reported as inconclusive: 25.9 µM [falling, partial curve, poor fit]. With `COc1ccccc1CNC(=O)C/C(C)=N/NC(=O)COc1ccc(C)cc1Br` the “activity change, negative = inhibition” value was inactive: 5.37%. In the case of `COc1ccc(-c2nnc(C3CCN(S(=O)(=O)c4ccc(C)c(C)c4)CC3)o2)cc1`, the Potency is reported as inconclusive: 6.51 µM [falling, partial curve, poor fit]. For `CC(/C=N/NC(=O)Cc1cccs1)=C\c1ccccc1`, the Potency was inconclusive: 4.11 µM [activator, full curve]. For `Cc1cc(OCC(=O)C(C)(C)C)c2c(-c3ccccc3)cc(=O)oc2c1`, the “activity change, negative = inhibition” value was inactive: -7.89%. For `COc1ccc(CCN=C(N)NS(=O)(=O)c2ccc(OC)c(OC)c2)cc1OC`, the “activity change, negative = inhibition” value was inactive: 9.12%. With `CN(C)S(=O)(=O)c1ccc(C(=O)Oc2cc(=O)[nH]c3ccccc23)cc1` the “activity change, negative = inhibition” value was inactive: 2.15%. In the case of `CCCN1C(=O)COc2ccc(-c3n[nH]c(=O)c4ccccc34)cc21`, the Potency is reported as inconclusive: 16.4 µM [falling, single point]. With `CCN1CCN(S(=O)(=O)c2ccc(Cl)c(C(=O)Nc3ccccc3N3CCCCC3)c2)CC1` the Potency was inconclusive: 29.1 µM [falling, single point]. With `CC(C)CNC(=O)c1cccc(NC(=O)c2ccc(Cl)c([N+](=O)[O-])c2)c1` the Potency was active: 25.9 µM. For `CS(=O)(=O)Nc1ccc(C2=NN(C(=O)c3ccccc3)C(c3cccs3)C2)cc1` (configuration not stated), the Potency was inconclusive: 29.1 µM [falling, single point].
